This assay has as its target T1, NAT10 acetyltransferase (human (endogenous in iPSC-derived neurons)) (UniProt Q9H0A0).
T1 sequence: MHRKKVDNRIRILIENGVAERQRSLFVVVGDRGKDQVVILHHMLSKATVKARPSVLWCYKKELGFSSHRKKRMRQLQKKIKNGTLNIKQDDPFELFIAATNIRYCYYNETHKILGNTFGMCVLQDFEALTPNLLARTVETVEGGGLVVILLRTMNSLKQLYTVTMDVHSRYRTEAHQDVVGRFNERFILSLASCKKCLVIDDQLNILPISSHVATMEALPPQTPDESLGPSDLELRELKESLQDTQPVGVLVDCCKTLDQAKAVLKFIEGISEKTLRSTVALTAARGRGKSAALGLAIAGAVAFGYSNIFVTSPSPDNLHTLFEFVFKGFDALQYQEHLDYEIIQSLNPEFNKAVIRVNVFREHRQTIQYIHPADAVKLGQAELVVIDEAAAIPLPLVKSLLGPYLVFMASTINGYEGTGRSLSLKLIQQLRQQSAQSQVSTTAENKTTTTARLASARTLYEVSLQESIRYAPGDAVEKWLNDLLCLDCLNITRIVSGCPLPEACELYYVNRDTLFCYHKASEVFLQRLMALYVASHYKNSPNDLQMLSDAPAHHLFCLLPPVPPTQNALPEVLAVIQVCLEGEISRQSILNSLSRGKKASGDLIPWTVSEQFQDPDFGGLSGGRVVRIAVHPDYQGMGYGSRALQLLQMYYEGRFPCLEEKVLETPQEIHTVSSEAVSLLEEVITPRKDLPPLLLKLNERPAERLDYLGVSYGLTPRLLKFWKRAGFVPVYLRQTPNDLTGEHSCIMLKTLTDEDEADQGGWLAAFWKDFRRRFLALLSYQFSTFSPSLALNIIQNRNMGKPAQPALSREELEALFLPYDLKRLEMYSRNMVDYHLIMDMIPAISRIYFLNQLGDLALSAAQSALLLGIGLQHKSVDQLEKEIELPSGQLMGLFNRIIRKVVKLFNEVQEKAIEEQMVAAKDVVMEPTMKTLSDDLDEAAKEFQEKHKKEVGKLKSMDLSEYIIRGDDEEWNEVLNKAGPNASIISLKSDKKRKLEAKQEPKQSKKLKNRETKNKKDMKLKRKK
Description: co-IP; 1 mg of total protein (RIPA extract) of FTD-MAPT or control neurons immunoprecipitated with polyclonal anti-NAT10 antibody or normal rabbit IgG; western blot for KIF2A and ARHGEF2.

Protein sequences, listed by entry. Tags and fused reporters are not part of them.
UniProt O00139: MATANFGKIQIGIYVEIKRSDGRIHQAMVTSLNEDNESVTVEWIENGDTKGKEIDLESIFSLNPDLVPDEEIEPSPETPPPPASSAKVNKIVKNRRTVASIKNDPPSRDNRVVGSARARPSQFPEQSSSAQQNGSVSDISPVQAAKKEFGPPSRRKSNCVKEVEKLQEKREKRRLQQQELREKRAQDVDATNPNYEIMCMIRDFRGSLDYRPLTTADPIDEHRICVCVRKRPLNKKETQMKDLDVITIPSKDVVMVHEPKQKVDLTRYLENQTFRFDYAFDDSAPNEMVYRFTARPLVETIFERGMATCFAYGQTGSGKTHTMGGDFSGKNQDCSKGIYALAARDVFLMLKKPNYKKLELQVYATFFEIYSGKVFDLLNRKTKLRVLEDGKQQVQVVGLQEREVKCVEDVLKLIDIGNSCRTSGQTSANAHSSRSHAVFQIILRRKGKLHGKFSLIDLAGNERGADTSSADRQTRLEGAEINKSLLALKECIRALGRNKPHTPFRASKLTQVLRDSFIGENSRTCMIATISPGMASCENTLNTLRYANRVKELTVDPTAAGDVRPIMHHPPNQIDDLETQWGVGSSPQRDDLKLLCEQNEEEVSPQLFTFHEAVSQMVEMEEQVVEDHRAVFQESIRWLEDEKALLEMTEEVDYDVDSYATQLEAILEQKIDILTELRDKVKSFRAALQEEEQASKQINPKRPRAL

Results are given in words; binding and its absence hold for the method and conditions named. In cells and extracts the contact can be indirect. Some entries that bind do so weakly or less than the wild type.

For the substance “kinesin KIF2A (from UniProt O00139 1-706)”, the binding entry was “binds”.

These data come from paper PMC13426208.
